The nature of this data set: Non-specific binding of TPB15 to ultrafiltration tubes.

In the case of `O=C(Nc1ccc(Cl)c(-c2nnc3c(Cl)cccn23)c1)c1ccc(Cl)nc1Cl` [TPB15], the “NSB (%)” value reads like this: (4 μg/mL in plasma ultrafiltrate) 1.75 ± 0.16%; (8 μg/mL in plasma ultrafiltrate) 2.76 ± 0.27%; (16 μg/mL in plasma ultrafiltrate) 2.67 ± 0.34%. Further, the “average NSB” value (mean of low, medium and high concentrations) is reported as 2.39 ± 0.46%.
